Test results published in patent US8263620B2, “Oxadiazole derivatives active on sphingosine-1-phosphate (SIP)” (Glaxo Group Limited, priority 2007, dated 2012).
Where a name gives a salt, the structure may show the parent alone. Some entries share one result that the patent states for a list of compounds.

The chains behind the UniProt entries cited, without tags or fusion partners. Where a name states a change or a piece, a line headed by the entry shows the natural chain unless it says otherwise.
UniProt Q99500: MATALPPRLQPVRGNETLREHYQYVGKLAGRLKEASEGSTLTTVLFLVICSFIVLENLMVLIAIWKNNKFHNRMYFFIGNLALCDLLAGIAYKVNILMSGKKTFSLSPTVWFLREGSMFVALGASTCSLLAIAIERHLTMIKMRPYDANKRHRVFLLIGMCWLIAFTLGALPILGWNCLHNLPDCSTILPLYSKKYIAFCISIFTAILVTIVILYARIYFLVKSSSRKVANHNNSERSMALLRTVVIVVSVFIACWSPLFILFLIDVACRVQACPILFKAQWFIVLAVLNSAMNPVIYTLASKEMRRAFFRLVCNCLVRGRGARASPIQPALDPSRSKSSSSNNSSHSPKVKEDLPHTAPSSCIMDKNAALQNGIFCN
UniProt P21453, whole entry: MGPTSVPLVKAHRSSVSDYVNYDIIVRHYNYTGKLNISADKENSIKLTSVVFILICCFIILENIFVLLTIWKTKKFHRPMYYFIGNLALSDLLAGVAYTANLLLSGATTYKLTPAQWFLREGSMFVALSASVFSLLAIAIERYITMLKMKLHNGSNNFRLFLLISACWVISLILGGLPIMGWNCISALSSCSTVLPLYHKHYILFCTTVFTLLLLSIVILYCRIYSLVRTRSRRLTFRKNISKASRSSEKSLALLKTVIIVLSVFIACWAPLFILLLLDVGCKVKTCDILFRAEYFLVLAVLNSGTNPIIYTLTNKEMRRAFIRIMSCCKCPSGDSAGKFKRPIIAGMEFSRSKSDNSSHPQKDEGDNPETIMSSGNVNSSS

How the values were obtained:
human S1P3 receptor = biological target: T1, human S1P3 receptor (Homo sapiens, UniProt Q99500); assay: S1P3 GTPγS assay; type: biochemical; details: [35S]-GTPγS SPA, S1P3 RBL-2H3 membranes, agonist
T1 construct: expressed in transfected cells; membranes
Method: For membrane preparations all steps were performed at 4° C. Rat hepatoma cells stably expressing the human S1P1 receptor or Rat Basophilic Leukaemia cells (RBL) stably expressing human S1P3 receptor were grown to 80% confluency before being harvested into 10 ml Phospho-Buffered Saline (PBS) and centrifuged at 1200 rpm for 5 minutes. After removal of the supernatant, the pellet was re-suspended and cells were homogenised within a glass Waring blender for 2 bursts of 15 secs in 200 mls of buffer (50 mM HEPES, 1 mM leupeptin, 25 μg/ml bacitracin, 1 mM EDTA, 1 mM PMSF, 2 μM pepstatin A). The blender was plunged into ice for 5 mins after the first burst and 10-40 mins after the final burst to allow foam to dissipate. […]
After 30 minutes pre-coupling on ice the bead and membrane suspension was dispensed into a white Greiner polypropylene LV384-well plate (5 μl/well), containing 0.1 μl of the compound. […] The final assay cocktail (10.1 μl) was centrifuged at 1000 rpm for 5 minutes then read immediately on a Viewlux reader. […]
After 30 minutes precoupling on ice, the bead and membrane suspension was dispensed into white Greiner polypropylene LV 384-well plates (5 μl/well), containing 0.1 μl of compound. […] The final assay cocktail (10.1 μl) was then sealed, spun on a centrifuge, then read immediately on a Viewlux instrument.

human S1P1 receptor = biological target: T2, human S1P1 receptor (Homo sapiens, UniProt P21453); assay: S1P1 GTPγS assay; type: biochemical; details: [35S]-GTPγS SPA, human S1P1 rat hepatoma membranes, agonist
T2 construct: expressed in transfected cells; membranes

## CC(C)Oc1ccc(-c2nc(-c3cccc4c3CCNC4CC(=O)O)no2)cc1C#N (centres unmarked) [Example 2, [5-(5-{3-Cyano-4-[(1-methylethyl)oxy]phenyl}-1,2,4-oxadiazol-3-yl)-1,2,3,4-tetrahydro-1-isoquinolinyl]acetic acid hydrochloride]
Human S1P3 receptor
  pEC50: < 6
Human S1P1 receptor
  pEC50: > 7
